doi:10.1101/2025.03.14.643291
No constants are given. Whether binding was seen depends on the method and setting. Binding seen in cells or lysates may run through a third protein. Some binding calls cover weakened binding; strength is not graded here.

Chains of the proteins cited; added tags and fusions are not shown.
UniProt Q8VBV3: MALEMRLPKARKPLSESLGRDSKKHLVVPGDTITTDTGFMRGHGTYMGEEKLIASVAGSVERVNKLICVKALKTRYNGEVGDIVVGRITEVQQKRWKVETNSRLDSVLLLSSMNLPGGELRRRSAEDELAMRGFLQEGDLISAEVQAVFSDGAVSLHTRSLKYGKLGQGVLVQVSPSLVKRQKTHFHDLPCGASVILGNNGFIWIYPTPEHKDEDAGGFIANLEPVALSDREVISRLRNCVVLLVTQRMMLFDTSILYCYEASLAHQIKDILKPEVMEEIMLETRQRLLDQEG
UniProt Q7TQK4: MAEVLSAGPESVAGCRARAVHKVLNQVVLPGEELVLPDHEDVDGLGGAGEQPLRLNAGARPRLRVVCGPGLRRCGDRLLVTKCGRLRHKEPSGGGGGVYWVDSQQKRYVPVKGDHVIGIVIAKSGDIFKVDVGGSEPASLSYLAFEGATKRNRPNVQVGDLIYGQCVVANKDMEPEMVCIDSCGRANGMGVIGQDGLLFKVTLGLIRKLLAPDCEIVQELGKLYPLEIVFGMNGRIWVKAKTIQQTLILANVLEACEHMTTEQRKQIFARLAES
UniProt Q9D0M0: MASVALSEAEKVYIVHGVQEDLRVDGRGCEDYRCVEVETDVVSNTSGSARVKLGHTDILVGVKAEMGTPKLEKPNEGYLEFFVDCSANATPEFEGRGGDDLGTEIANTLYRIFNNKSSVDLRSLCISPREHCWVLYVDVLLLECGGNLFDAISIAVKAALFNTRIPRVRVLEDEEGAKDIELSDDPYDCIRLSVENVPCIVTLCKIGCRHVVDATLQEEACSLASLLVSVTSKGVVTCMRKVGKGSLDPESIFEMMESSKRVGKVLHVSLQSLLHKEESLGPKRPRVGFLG
UniProt Q9JHI7: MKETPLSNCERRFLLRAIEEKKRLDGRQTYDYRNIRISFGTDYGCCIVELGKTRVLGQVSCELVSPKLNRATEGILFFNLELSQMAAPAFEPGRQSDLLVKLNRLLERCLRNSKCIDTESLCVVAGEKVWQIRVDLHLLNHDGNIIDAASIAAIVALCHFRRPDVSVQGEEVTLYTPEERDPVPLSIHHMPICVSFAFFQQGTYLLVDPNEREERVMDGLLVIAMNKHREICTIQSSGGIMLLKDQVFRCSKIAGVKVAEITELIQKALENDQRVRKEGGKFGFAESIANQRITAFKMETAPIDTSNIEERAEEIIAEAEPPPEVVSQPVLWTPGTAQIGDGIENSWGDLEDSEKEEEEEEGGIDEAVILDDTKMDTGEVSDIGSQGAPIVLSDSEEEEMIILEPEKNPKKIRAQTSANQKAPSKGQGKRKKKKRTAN
UniProt Q8C0S1: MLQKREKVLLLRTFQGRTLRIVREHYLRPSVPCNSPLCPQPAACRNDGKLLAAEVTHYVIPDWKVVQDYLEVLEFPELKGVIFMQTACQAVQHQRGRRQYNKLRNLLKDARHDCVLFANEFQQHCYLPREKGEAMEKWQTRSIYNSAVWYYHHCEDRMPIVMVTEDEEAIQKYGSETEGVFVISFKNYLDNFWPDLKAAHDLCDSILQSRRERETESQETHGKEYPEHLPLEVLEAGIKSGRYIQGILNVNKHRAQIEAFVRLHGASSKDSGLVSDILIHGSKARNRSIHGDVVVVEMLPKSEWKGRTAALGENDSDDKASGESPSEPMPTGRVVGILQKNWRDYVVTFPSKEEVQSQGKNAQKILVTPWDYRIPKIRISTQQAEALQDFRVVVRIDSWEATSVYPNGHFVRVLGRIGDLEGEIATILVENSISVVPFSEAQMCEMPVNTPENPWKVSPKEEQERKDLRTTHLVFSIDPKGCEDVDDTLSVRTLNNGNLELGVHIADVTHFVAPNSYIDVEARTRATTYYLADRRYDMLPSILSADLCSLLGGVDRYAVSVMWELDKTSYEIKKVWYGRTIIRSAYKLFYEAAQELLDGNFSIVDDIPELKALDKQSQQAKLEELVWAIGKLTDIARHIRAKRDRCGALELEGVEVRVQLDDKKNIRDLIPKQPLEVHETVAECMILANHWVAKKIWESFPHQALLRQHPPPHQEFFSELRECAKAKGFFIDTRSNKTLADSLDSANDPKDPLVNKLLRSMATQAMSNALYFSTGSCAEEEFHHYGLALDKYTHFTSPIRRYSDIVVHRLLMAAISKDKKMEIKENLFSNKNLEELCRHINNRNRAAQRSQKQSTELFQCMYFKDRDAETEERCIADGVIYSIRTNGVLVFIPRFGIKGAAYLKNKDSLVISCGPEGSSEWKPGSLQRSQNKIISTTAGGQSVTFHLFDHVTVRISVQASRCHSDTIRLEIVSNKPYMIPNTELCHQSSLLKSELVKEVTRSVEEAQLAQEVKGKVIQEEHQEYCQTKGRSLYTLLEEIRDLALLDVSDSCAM
UniProt Q8BTW3: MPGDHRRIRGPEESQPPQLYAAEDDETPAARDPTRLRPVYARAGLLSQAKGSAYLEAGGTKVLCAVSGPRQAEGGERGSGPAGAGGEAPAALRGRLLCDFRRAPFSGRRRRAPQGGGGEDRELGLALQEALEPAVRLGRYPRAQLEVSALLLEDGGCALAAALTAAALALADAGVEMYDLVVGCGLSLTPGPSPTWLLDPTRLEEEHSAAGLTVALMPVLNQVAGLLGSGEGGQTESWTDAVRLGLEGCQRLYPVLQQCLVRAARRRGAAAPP
UniProt Q921I9: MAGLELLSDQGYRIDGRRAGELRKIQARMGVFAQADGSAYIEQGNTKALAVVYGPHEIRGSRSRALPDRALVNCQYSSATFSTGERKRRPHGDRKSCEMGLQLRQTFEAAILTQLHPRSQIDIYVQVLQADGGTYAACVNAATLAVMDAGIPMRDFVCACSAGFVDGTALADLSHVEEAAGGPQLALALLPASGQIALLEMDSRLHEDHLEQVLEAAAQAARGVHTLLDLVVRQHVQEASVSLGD
UniProt Q9D753: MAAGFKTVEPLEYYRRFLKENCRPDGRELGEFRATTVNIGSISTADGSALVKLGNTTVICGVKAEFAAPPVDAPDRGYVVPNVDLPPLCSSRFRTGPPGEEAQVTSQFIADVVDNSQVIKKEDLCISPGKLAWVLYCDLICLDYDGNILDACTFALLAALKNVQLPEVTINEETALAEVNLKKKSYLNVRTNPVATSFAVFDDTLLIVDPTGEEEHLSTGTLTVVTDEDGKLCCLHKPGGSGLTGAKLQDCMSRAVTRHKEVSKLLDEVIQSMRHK

These molecules were tested against Exosc2-mCherry-V5 (mouse) (UniProt Q8VBV3) (assay: co-IP).

Molecule | binding
Exosc3 (from UniProt Q7TQK4 1-274) | binds
Exosc7 (from UniProt Q9D0M0 1-291) | binds
Exosc9 (from UniProt Q9JHI7 1-438) | binds
Exosc1 (from UniProt Q9DAA6-1 1-195) | binds
Dis3L (from UniProt Q8C0S1 1-1053) (enzyme) | binds
Exosc6 (from UniProt Q8BTW3 1-273) | binds

The remaining lines, values ahead:

binding | Molecule
binds | Exosc4 (from UniProt Q921I9 1-245)
binds | Exosc8 (from UniProt Q9D753 1-276)

Target: Exosc2-mCherry-V5 (mouse) (UniProt Q8VBV3)
Assay: co-IP
Remark: another data set of the same source

binding | Molecule
binds | Exosc10 (enzyme, UniProt P56960 1-887) MAPPSPREHQSAPATSATKPDAEMVLPGFPDADSFVKFALGSVVAVTKASGGLPQFGDEYDFYRSFPAFQAFCETQGDRLLQCMSRVMQYHGCRSNIKDRSKVTELEDKFDLLVDTNDVILERVGMLLDEASGVNKHQQPVLPAGLQVPKTIVSSWNRKAGEYGKKAKSETFRLLHAKNIVRPQLRFREKIDNSNTPFLPKIFVKPNARKPLPLALSKERRERPQDRPEDLDVPPALADFIHQQRTQQVEQDMFAHPYQYELDHFTPPQSVLQRPKPQLYRAVGETPCHLVSSLDELVELNEKLLGCQEFAVDLEHHSYRSFLGLTCLMQISTRTEDFIVDTLELRSDMYILNESLTDPAIVKVFHGADSDIEWLQKDFGLYVVNMFDTHQAARLLNLARHSLDHLLRLYCGVESNKQYQLADWRIRPLPEEMLSYARDDTHYLLYIYDRMRLELWERGNHQPVQLQVVWQRSRDICLKKFVKPIFTDESYLELYRKQKKHLNSQQLTAFQLLFAWRDKTARREDESYGYVLPNHMMLKIAEELPKEPQGIIACCNPVPPLVRQQINEMHLLIQQAREMPLLKSENAAGVRKSGPLPSAERLENDLFGPHDCSHAPPDNYQNTSTDGTLPLQKQPSLFTEGKEETSVDAGCLLATAVITLFSEPNTEEGGKTPLTVAQKKAQNIMQSFENPFRMFLPSLEHKAHISQAAKFDPSSKIYEISNRWKLASQVQVQKEPKEATKKKVAEQTAAREEAKEEAAAGVLEQAIPVRQQAALENATKKRERATSDLRTIEQKQEKKRLKSSKKAKDPDPPGKDFSPYDYSQSDFRAFAGDSKSKPSSQFDPNKLAPSGKKGVGAKKCKQSVGNKSMSFAVGKSDRGFRHNWPKR
binds weakly | Dis3 (enzyme, UniProt Q9CSH3 1-958) MLRSKTFLKKTRAGGVVKIVREHYLRDDIGCGAPACSACGGAHAGPALELQPRDQASSLCPWPHYLLPDTNVLLHQIDVLEHPAIRNVIVLQTVMQEVRNRSAPIYKRIRDVTNNQEKHFYTFTNEHHKETYIEQEQGENANDRNDRAIRVAAKWYNEHLKRVAADSQLQVILITNDRKNKEKAVQEGIPAFTCEEYVKSLTANPELIDRLAYLSDEMNEIESGKIIFSEHLPLSKLQQGIKSGSYLQGTFRASRENYLEATVWIHGDKEEEKEILIQGIKHLNRAVHEDIVAVELLPRSQWVAPSSVVLDDEGQNEDDVEKDEERELLLKTAVSEKMLRPTGRVVGIIKRNWRPYCGMLSKSDIKESRRHLFTPADKRIPRIRIETRQASALEGRRIIVAIDGWPRNSRYPNGHFVKNLGDVGEKETETEVLLLEHDVPHQPFSQAVLSFLPRMPWSITEEDMKNREDLRHLCVCSVDPPGCTDIDDALHCRELSNGNLEVGVHIADVSHFIRPGNALDQESARRGTTVYLCEKRIDMVPELLSSNLCSLRSNVDRLAFSCIWEMNHNAEILKTRFTKSVINSKASLTYAEAQMRIDSAAMNDDITTSLRGLNQLAKILKKGRIEKGALTLSSPEIRFHMDSETHDPIDLQTKELRETNSMVEEFMLLANISVAKKIHEEFSEHALLRKHPAPPPSNYDILVKAAKSKNLQIKTDTAKSLADSLDRAESPDFPYLNTLLRILATRCMMQAVYFCSGMDNDFHHYGLASPIYTHFTSPIRRYADIIVHRLLAVAIGADCTYPELTDKHKLSDICKNLNFRHKMAQYAQRASVAFHTQLFFKSKGIVSEEAYILFVRKNAIVVLIPKYGLEGTVFFEEKDKPKPRLAYDDEIPSLRIEGTVFHVFDKVKVKITLDSSNLQHQKIRMALVEPQIPGINIPPNVADKALTAPGGKKRKLEK
